Test results reported in doi:10.1101/2024.07.05.602170.
These are yes or no findings as the source states them, for the method shown. In cells and extracts the contact can be indirect. Some results given as binding are weak or reduced against the parent protein; the word gives no strength.

By UniProt entry, the sequences of proteins in these tests, tags left out. Where a name states a change or a piece, a line headed by the entry shows the natural chain unless it says otherwise. Chains listed by the source or under a name are the forms on record and can include a tag or linker.
0N4R wild-type human tau (P10636, form named): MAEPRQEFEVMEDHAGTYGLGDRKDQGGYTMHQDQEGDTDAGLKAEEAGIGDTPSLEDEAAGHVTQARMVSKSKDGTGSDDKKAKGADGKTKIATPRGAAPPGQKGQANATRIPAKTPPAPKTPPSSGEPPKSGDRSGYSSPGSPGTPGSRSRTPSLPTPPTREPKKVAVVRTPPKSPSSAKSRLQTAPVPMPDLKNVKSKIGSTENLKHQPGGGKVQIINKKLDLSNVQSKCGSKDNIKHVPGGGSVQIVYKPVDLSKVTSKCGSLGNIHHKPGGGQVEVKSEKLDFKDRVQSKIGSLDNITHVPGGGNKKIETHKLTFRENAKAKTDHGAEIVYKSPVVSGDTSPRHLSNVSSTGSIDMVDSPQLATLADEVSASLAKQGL
UniProt O35465: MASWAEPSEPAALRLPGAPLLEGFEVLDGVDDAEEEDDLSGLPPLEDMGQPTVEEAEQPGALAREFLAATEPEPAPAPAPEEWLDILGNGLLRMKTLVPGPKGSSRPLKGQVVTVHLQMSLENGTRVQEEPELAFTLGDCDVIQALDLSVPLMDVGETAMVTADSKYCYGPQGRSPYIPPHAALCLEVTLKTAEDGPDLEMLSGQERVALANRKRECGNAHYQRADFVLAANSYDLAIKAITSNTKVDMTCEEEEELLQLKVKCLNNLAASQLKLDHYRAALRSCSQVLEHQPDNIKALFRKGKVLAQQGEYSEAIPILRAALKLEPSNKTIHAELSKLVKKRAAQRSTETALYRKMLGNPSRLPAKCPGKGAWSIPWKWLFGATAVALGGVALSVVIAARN

Target: 0N4R wild-type human tau (human) (UniProt P10636)
Experiment: co-IP; 500 ug lysate of stable HT22 cells (150 mM NaCl, 50 mM Tris-HCl, 1 mM EDTA, 1 mM EGTA, 0.5% NP-40, pH 7.4) incubated with rabbit anti-tau (DAKO) or rabbit IgG control overnight at 4°C, protein A/G magnetic agarose beads; blot with mouse anti-FKBP8

binding: binds
Substance: FK506-binding protein prolyl isomerase 8 (FKBP8/FKBP38) (from UniProt O35465 1-402)
